# “Also recorded” adds a separate entry of the source.
# System: Aspergillus niger, Pseudomonas aeruginosa, E. coli, Staphylococcus aureus and Candida albicans
# Test: Antimicrobial effectiveness test, USP/EPA/EPB criteria
# Conditions: Example 19
structure (smiles),measurement,setting,value
[Cl-].[Na+] [NaCl],Effect on antimicrobial effectiveness,component concentration (50-100 mM),Negative; also recorded: Neutral
same,Effect on antimicrobial effectiveness,component concentration (80-100 mM),Neutral

# — patent US9993529B2, “Stable formulations of a hyaluronan-degrading enzyme” (Halozyme, Inc., priority 2011, dated 2018)
